Among the data in PubChem BioAssay (NCATS) are max response and viability change values, retold here.

Several values for one entry are separate records, joined by “and”; a condition that tells them apart may be missing. Equal entries are not always repeated. This is one part of the list.

Assay [1] can be described thus: qHTS assay for small molecule antagonists of peroxisome proliferator-activated receptor delta signaling (AID 588535).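 Further: cells co-treated with a PPAR-delta agonist as stimulator during compound exposure.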 Particulars: HEK293T PPARd-UAS-bla, beta-lactamase FRET ratio, 18 h; 460 nm channel.
A short description of assay [2]: qHTS assay for small molecule agonists of retinoid X receptor alpha signaling (AID 588544). As to conditions: HEK293T RXRa-UAS-bla, beta-lactamase reporter, 18 h; 530 nm emission.
A short description of assay [3]: qHTS assay for small molecule antagonists of retinoid X receptor alpha signaling (AID 588546).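 Further: cells stimulated with 9-cis-retinoic acid as agonist; on the % scale 0 is the no-effect control and ±100 the full control effect.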 As to conditions: HEK293T RXRa-UAS-bla, beta-lactamase ratio, antagonist mode; measured here: W530 green channel, cytotoxicity proxy. Put shortly:
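Beta-lactamase reporter inhibition, read as CCF4 fluorescence ratio (ex 405, em 460/530 nm) after 2 h at RT. HEK293T UAS-bla cells, 2500/well, were stimulated with 9-cis-RA at 500 or 100 nM final alongside test compound for 18 h at 37 C.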

The nature of assay [4]: qHTS Assay for Lipid Storage Modulators (AID 1519). Particulars: Drosophila S3 cells, BODIPY lipid droplet/cell ratio, laser cytometry, cells loaded with oleic acid.
The nature of assay [5]: Nrf2 qHTS screen for inhibitors: Validation (AID 493153). As to conditions: A549 ARE-Fluc reporter, 18-24 h; measured here: cytotoxicity max response. Put shortly:
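A549 ARE_Fluc, 5% FBS OPTI-MEM; cpd titration, 18-24 h, 37°C/5% CO2. Read 1: CellTiter-Fluor (Ex 405/Em 525), cytotox. Read 2: luciferase lum, Nrf2 activity.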

Where [6] appears, read: measured here: cell count channel max response.
Where [7] appears, read: measured here: lipid channel max response.

For the molecule `Cc1cccc([N+](=O)[O-])c1[N+](=O)[O-]`, the max response is 22.5% and -8.95% in assay [1]; -9.27% in assay [2]; -0.883% and -11.6% in assay [3].
With `C/C1=C2N=C(/C=C3N=C(/C(C)=C4\[N-][C@@](C)([C@H]5N=C1[C@@](C)(CCC(=O)NC[C@H](C)OP(=O)([O-])O[C@@H]1[C@H](O)[C@H](n6cnc7cc(C)c(C)cc76)O[C@@H]1CO)[C@@H]5CC(N)=O)[C@](C)(CC(N)=O)[C@H]4CCC(N)=O)[C@@](C)(CC(N)=O)[C@@H]\3CCC(N)=O)C(C)(C)[C@@H]/2CCC(N)=O.[C-]#N.[Co+3]`, the figures for the max response in assay [4] (setting [6]) and in assay [4] (setting [7]) were 9.91% and 12.3%, respectively.
For the molecule `O=[N+]([O-])c1ccc([N+](=O)[O-])cc1`, the max response in assay [1] is -0.128%; in assay [3], 7.9%.
`CN(C(=O)Cc1ccc(Cl)c(Cl)c1)[C@@H]1CC[C@]2(CCCO2)C[C@H]1N1CCCC1`: the max response in assay [4] (setting [6]) is -33%; in assay [4] (setting [7]), -30.6%. The viability change in assay [5] is -7.62%.
